Experiment [1] has as its target native-sequence human IGFBP-3 (human) (UniProt P17936). In words: BIAcore competition. For orientation: Surface plasmon resonance follows binding to a sensor surface in real time, without labels.
The target is the same in experiment [2]. In words: BIAcore competition, bp15 preincubated with IGFBP-3, injected over immobilised biotinylated IGF-I and IGF-II.

Sequences of proteins named here, by UniProt entry; tags and fusion partners are left off. A change or cut given only in a name is not applied to a line headed by its entry.
UniProt P17936: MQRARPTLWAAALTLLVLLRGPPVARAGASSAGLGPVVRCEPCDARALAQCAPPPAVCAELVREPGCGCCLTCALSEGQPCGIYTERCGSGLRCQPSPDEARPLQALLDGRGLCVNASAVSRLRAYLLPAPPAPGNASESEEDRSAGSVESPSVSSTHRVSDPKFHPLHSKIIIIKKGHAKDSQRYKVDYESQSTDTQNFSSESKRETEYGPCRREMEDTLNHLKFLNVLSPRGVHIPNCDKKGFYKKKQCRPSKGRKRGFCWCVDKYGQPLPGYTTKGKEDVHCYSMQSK

Results are given in words; binding and its absence hold for the method and conditions named. Some entries that bind do so weakly or less than the wild type.

B1: peptide bp15 (peptide)
peptide: SEEVCWPVAEWYLCN
For the molecule B1, the binding result in experiment [1] and in experiment [2] was “binds” in each case.
